Results reported in the supplement of paper PMC10849652.
The other results are listed elsewhere or left out.

Sequences of proteins named here, by UniProt entry; tags and fusion partners are left off. A change or cut given only in a name is not applied to a line headed by its entry.
UniProt A1A5C7: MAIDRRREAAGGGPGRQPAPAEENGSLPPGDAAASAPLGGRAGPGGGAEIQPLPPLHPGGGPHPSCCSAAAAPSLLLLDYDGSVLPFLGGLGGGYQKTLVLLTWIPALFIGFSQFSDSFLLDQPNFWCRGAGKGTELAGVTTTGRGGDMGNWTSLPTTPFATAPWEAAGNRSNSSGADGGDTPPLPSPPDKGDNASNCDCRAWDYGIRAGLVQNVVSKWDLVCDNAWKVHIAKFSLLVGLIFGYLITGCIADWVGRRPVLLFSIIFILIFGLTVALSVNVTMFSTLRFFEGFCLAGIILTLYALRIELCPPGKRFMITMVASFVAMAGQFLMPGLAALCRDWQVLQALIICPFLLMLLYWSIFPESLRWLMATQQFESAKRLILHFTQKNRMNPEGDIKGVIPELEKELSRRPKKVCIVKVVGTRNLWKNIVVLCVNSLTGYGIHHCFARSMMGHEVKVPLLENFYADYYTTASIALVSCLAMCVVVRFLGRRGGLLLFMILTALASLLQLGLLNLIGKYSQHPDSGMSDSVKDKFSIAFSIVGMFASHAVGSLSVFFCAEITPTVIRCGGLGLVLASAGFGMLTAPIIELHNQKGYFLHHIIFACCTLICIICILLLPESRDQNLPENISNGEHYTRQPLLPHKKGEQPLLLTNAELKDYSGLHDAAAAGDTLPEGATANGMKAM
UniProt P14672: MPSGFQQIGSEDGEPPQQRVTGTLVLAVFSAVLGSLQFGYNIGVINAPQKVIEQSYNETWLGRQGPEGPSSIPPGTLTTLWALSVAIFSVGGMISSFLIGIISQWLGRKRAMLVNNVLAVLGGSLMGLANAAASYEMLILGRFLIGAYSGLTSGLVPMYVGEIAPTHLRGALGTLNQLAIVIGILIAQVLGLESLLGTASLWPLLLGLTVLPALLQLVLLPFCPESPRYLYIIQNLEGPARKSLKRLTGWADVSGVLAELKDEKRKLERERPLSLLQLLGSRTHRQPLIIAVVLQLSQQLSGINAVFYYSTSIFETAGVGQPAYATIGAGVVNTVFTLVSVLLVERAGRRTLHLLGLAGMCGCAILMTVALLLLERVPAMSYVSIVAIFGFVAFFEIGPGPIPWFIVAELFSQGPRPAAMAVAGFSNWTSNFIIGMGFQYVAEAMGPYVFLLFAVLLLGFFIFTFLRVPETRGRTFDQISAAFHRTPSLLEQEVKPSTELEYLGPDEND
UniProt Q9NVC3: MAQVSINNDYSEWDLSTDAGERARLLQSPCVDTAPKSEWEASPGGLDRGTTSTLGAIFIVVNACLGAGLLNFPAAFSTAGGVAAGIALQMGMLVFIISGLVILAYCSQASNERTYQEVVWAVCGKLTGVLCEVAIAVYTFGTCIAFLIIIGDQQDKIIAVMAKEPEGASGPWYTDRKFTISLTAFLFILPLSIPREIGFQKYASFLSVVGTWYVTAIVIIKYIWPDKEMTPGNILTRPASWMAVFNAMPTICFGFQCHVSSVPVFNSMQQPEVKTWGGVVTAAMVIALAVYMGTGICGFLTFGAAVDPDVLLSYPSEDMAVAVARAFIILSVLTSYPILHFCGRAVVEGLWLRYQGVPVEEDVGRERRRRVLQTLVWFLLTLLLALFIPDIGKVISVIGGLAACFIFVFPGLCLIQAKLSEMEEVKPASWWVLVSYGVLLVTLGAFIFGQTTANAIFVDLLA
UniProt O95258: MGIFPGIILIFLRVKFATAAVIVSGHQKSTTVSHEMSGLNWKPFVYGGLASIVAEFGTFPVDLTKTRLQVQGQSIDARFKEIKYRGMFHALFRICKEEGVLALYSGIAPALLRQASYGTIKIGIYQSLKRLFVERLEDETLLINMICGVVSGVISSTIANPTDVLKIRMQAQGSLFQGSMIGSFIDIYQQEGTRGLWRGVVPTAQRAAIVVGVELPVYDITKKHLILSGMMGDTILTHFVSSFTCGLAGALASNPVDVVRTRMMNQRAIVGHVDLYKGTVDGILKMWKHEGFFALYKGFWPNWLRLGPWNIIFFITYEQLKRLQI
UniProt Q6XR72: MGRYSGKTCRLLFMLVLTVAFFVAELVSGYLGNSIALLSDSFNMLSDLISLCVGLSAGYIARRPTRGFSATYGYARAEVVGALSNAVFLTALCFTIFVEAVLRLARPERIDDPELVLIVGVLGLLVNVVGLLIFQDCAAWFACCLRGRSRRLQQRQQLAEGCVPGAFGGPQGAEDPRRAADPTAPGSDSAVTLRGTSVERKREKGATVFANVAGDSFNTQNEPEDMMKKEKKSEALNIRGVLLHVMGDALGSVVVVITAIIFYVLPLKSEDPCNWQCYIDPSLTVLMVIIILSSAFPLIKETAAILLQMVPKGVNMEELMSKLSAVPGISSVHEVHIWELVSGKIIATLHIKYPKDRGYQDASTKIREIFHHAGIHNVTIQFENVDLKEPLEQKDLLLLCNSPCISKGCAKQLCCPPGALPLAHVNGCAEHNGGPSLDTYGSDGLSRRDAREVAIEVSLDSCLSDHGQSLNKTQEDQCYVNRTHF
UniProt Q5SVS4: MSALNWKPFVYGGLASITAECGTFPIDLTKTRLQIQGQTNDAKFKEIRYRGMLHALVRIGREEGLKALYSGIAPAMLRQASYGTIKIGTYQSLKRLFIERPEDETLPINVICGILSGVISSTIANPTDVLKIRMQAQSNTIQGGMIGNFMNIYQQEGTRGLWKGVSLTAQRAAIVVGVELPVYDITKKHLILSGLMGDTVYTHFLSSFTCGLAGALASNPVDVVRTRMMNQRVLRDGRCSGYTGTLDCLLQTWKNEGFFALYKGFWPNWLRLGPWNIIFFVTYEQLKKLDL
UniProt Q6NT16: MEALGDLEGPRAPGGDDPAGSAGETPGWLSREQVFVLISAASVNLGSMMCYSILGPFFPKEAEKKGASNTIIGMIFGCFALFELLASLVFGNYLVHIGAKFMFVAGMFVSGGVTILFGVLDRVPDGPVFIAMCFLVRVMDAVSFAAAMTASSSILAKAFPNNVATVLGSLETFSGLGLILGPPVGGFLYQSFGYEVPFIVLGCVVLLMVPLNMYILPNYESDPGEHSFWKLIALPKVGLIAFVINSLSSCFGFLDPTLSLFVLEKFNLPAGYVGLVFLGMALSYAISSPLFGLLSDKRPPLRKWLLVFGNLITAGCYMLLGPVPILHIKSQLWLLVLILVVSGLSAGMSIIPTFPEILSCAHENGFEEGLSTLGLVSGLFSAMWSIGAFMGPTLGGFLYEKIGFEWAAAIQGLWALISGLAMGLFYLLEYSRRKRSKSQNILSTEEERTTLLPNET
UniProt Q9BRV3: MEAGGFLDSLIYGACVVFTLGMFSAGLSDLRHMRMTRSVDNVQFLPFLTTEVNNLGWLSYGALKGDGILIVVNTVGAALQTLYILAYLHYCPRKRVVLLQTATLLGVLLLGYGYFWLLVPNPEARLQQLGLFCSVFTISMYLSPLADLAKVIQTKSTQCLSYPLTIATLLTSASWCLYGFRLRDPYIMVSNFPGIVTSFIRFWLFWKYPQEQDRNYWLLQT
UniProt Q9BV35: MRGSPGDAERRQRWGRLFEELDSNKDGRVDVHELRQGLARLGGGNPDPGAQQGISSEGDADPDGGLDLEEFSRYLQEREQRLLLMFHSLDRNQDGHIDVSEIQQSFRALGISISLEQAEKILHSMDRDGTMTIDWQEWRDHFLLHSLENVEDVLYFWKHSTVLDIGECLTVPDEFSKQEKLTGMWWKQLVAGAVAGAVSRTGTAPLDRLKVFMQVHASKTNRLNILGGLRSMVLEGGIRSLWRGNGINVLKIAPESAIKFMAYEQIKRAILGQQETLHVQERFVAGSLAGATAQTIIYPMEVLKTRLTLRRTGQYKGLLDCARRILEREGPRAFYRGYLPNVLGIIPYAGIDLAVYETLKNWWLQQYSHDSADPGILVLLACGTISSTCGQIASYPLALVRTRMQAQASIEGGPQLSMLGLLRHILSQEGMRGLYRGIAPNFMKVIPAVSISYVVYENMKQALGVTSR
UniProt Q96H78: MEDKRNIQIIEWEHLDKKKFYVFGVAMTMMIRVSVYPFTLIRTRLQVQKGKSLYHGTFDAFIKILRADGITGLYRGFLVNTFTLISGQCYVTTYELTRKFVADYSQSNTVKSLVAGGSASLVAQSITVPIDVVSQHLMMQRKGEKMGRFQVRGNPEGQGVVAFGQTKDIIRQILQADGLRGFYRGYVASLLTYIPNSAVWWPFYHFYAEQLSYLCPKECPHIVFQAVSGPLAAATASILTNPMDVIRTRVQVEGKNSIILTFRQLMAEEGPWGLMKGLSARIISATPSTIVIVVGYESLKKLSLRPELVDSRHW
UniProt Q9BZJ4: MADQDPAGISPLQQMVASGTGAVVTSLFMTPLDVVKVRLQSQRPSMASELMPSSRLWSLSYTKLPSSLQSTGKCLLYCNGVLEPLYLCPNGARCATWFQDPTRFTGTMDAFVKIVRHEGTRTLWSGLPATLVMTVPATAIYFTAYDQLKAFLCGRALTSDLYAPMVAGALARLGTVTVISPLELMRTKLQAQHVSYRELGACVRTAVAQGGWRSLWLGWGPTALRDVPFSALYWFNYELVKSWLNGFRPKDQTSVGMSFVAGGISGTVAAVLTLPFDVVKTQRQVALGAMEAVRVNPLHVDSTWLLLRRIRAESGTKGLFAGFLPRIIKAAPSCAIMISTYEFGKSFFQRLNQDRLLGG
UniProt P12235: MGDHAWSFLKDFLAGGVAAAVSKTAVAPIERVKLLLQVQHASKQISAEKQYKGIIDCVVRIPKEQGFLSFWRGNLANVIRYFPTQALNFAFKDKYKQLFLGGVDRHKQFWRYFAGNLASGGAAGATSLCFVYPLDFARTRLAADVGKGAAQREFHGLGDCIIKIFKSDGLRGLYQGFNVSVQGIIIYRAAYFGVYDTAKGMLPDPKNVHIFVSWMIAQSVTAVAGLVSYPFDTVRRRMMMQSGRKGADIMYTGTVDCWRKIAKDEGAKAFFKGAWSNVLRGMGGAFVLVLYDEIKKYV
UniProt P78383: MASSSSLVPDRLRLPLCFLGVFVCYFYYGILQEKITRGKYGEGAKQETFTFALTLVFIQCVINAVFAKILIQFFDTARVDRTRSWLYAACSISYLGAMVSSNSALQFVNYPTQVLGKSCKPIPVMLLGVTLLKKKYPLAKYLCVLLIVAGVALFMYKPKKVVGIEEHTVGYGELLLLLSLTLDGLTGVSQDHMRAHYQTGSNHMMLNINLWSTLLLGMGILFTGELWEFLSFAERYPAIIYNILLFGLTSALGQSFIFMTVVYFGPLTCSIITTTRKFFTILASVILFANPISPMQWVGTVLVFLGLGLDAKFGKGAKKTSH
UniProt Q9H1N7: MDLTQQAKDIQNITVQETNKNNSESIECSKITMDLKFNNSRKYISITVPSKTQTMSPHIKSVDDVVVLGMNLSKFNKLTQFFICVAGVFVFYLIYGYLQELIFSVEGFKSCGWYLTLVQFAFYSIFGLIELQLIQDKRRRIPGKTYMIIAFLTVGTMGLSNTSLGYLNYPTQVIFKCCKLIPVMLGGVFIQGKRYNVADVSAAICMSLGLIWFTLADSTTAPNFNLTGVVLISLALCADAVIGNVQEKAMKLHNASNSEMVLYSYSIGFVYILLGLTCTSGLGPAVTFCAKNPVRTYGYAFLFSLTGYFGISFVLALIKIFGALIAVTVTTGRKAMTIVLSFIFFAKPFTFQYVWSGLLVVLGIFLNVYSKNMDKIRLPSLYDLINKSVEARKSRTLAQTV
UniProt Q6P1K1: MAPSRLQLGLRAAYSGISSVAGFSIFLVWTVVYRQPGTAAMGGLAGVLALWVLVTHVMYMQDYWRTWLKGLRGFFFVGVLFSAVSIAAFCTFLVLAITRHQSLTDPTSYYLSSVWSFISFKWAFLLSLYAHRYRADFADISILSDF
UniProt Q8IVJ1: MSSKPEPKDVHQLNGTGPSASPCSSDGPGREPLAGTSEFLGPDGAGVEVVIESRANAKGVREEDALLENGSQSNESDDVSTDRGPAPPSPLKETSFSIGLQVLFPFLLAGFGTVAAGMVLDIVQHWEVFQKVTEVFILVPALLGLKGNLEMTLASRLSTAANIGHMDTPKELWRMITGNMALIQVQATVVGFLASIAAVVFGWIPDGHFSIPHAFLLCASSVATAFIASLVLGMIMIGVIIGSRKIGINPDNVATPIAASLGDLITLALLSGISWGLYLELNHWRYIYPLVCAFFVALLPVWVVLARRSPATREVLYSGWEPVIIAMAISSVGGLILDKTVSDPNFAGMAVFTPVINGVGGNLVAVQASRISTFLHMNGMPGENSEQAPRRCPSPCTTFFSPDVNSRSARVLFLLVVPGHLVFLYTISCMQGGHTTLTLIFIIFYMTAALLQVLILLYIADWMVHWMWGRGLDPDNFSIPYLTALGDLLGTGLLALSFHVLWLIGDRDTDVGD

Legend:
Assay in all cases: log2 fold change, soluble protein after heating vs DMSO (PISA); higher = thermal stabilisation; K562 cells, 10 uM, 30 min; active = over 0.2 and 3.5 SD of the protein, either way, in both replicates (recomputed)
[1] = compound: CC[C@@H]1C(=O)N(C)c2cnc(Nc3ccc(C(=O)NC4CCN(C)CC4)cc3OC)nc2N1C1CCCC1
Method in brief: (§1)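 K562 cells at 2×10^6 cells/mL were exposed to 10 μM compound for 30 min, then aliquots were heated for 3 min across 48°C-58°C, pooled, and extracted in PBS containing 0.5% NP-40 at 4°C. The supernatant after 21,000xg for 90 min was taken as soluble protein and measured by TMTpro 16plex LC-MS/MS with channel sums equalised. Thermal stability is reported relative to control samples, with values from duplicates. Fold changes are given on a log2 scale.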

volasertib = compound: CC[C@@H]1C(=O)N(C)c2cnc(Nc3ccc(C(=O)N[C@H]4CC[C@H](N5CCN(CC6CC6)CC5)CC4)cc3OC)nc2N1C(C)C [volasertib]
Method in brief: as §1

[2] = compound: CCn1c(C(=O)N(C2CC2)C2CC2)cc2c3c(ncn3C)c(Nc3cc(C)n(C)n3)nc21
Method in brief: as §1

[3] = compound: CCn1cc(-c2ccnc3[nH]c(-c4cccc(CN(C)C)c4)cc23)c(-c2ccc(NC(=O)N(C)C)cc2)n1
Method in brief: as §1

[4] = compound: CN1C2=C(C3=C1C(=O)N(N=C3)CC4=CC(=CC=C4)N)SC(=C2)S(=O)C
Method in brief: as §1

[5] = compound: CN1CCC(CNc2ccc3ncc(-c4cccc(OC(F)(F)F)c4)n3n2)CC1
Method in brief: as §1

saracatinib = compound: CN1CCN(CCOc2cc(OC3CCOCC3)c3c(Nc4c(Cl)ccc5c4OCO5)ncnc3c2)CC1 [saracatinib]
Method in brief: as §1

alvocidib = compound: CN1CC[C@H](c2c(O)cc(O)c3c(=O)cc(-c4ccccc4Cl)oc23)[C@H](O)C1 [alvocidib]
Method in brief: as §1

[6] = compound: CNC(=O)C1=CC=CC=C1NC2=NC(=NC=C2Cl)NC3=C(C=C(C=C3)N4CCOCC4)OC
Method in brief: as §1

rucaparib = compound: CNCc1ccc(-c2[nH]c3cc(F)cc4c3c2CCNC4=O)cc1 [rucaparib]
Method in brief: as §1

[7] = compound: CNc1nc(-c2ccc3c(N)n[nH]c3c2)cc(N2C[C@@H](C(=O)NC3CCCCC3)CC[C@H]2C)n1
Method in brief: as §1

encorafenib = compound: COC(=O)N[C@@H](C)CNc1nccc(-c2cn(C(C)C)nc2-c2cc(Cl)cc(NS(C)(=O)=O)c2F)n1 [encorafenib]
Method in brief: as §1

[8] = compound: CC[C@H](C)N1C=C(C2=C(C=C(C=C21)C3=CN=C(C=C3)N4CCNCC4)C(=O)NCC5=C(C=C(NC5=O)C)C)C
Method in brief: as §1

rosiglitazone = compound: CN(CCOC1=CC=C(C=C1)C[C@H]2C(=O)NC(=O)S2)C3=CC=CC=N3 (racemic) [rosiglitazone]
Method in brief: as §1

sotrastaurin = compound: CN1CCN(c2nc(C3=C(c4c[nH]c5ccccc45)C(=O)NC3=O)c3ccccc3n2)CC1 [sotrastaurin]
Method in brief: as §1

Tubastatin A = compound: CN1CCc2c(c3ccccc3n2Cc2ccc(C(=O)NO)cc2)C1 [Tubastatin A]
Method in brief: as §1

epoxomicin = compound: CC[C@H](C)[C@@H](C(=O)N[C@@H]([C@@H](C)O)C(=O)N[C@@H](CC(C)C)C(=O)[C@]1(CO1)C)NC(=O)[C@H]([C@@H](C)CC)N(C)C(=O)C [epoxomicin]
Method in brief: as §1

[9] = compound: CN(C)CC(=O)Nc1ccc2[nH]c(=O)c3ccccc3c2c1
Method in brief: as §1

defactinib = compound: CNC(=O)c1ccc(Nc2ncc(C(F)(F)F)c(NCc3nccnc3N(C)S(C)(=O)=O)n2)cc1 [defactinib]
Method in brief: as §1

[10] = compound: COC(=O)[C@H](CCSC)NC(=O)C1=C(C=C(C=C1)NC[C@H](CS)N)C2=CC=CC=C2
Method in brief: as §1

| Target | log2 fold change [1] | log2 fold change (volasertib) | log2 fold change [2] | log2 fold change [3] | log2 fold change [4] | log2 fold change [5] | log2 fold change (saracatinib) | log2 fold change (alvocidib) | log2 fold change [6] | log2 fold change (rucaparib) | log2 fold change [7] | log2 fold change (encorafenib) | log2 fold change [8] | log2 fold change (rosiglitazone) | log2 fold change (sotrastaurin) | log2 fold change (Tubastatin A) | log2 fold change (epoxomicin) | log2 fold change [9] | log2 fold change (defactinib) | log2 fold change [10] |
| --- | --- | --- | --- | --- | --- | --- | --- | --- | --- | --- | --- | --- | --- | --- | --- | --- | --- | --- | --- | --- |
| SLC22A23 (UniProt A1A5C7) | inactive: 0.04 | inactive: 0.229 | inactive: -0.023 | inactive: -0.028 | inactive: 0.02 | inactive: 0.094 | inactive: -0.268 | inactive: -0.019 | inactive: -0.014 | inactive: 0.06 | inactive: -0.109 | inactive: 0.032 |  |  |  |  |  |  |  |  |
| SLC2A4 (UniProt P14672) | inactive: 0.137 | inactive: 0.194 | inactive: 0.169 | inactive: -0.083 |  | inactive: -0.044 |  | inactive: -0.161 | inactive: -0.087 | inactive: -0.078 |  | inactive: 0.078 | inactive: -0.011 | inactive: -0.096 | inactive: 0.001 | inactive: 0.1 |  |  |  |  |
| SLC38A7 (UniProt Q9NVC3) | inactive: -0.283 | inactive: -0.054 |  | inactive: 0.109 |  | inactive: -0.589 |  |  | inactive: -0.052 | inactive: 0.004 |  | inactive: 0.016 | inactive: -0.023 |  | inactive: 0.152 | inactive: -0.177 | inactive: 0.078 | inactive: -0.123 | inactive: -0.126 | inactive: -0.261 |
| SLC35A2 isoform 4 (UniProt P78381) | inactive: -0.021 | inactive: 0.035 |  | inactive: 0.001 | inactive: -0.14 | inactive: 0.179 | inactive: 0.03 | inactive: -0.052 |  | inactive: 0.05 | inactive: -0.255 | inactive: 0.061 | inactive: 0.006 | inactive: 0.012 | inactive: 0.053 | inactive: -0.104 | inactive: -0.098 | inactive: -0.064 | inactive: -0.168 | inactive: 0.108 |
| SLC25A14 isoform 3 (UniProt O95258) | inactive: 0.125 | inactive: 0.103 | inactive: 0.028 | inactive: -0.094 | inactive: -0.036 | inactive: 0.065 | inactive: 0.103 | inactive: -0.119 | inactive: -0.015 | inactive: -0.129 | inactive: -0.006 | inactive: 0.014 | inactive: 0.036 | inactive: -0.033 |  | inactive: -0.017 |  | inactive: 0.027 | inactive: 0.019 | inactive: -0.007 |
| SLC30A10 (UniProt Q6XR72) | inactive: 0 | inactive: -0.052 |  | inactive: -0.244 | inactive: -0.087 | inactive: 0.044 | inactive: -0.075 |  | inactive: -0.025 | inactive: -0.073 | inactive: -0.036 | inactive: 0.001 | inactive: -0.052 |  | inactive: 0.031 | inactive: 0.008 | inactive: 0.045 | inactive: -0.028 | inactive: 0.012 | inactive: -0.011 |
| SLC25A30 (UniProt Q5SVS4) | inactive: 0.039 | inactive: 0.014 | inactive: 0.009 | inactive: 0.003 | inactive: -0.116 | inactive: 0.038 | inactive: 0.133 | inactive: 0.025 | inactive: 0.021 | inactive: 0.037 | inactive: -0.113 | inactive: 0.092 | inactive: -0.045 |  | inactive: 0.266 |  |  | inactive: -0.004 | inactive: -0.048 | inactive: -0.081 |
| SLC18B1 (UniProt Q6NT16) | inactive: 0.031 | inactive: -0.114 |  | inactive: -0.005 | inactive: -0.035 | active: -0.592 | inactive: 0.021 |  | inactive: 0.061 | inactive: -0.012 | inactive: -0.071 | inactive: 0.012 | inactive: -0.034 |  | inactive: 0.023 | inactive: 0.04 | inactive: 0.022 | inactive: -0.134 | inactive: 0.094 | inactive: 0.056 |
| SLC1A5 (UniProt Q15758) | inactive: 0.095 | inactive: 0.027 |  | inactive: -0.014 | inactive: -0.114 | active: 0.226 | inactive: 0 |  | inactive: -0.09 | inactive: -0.015 | inactive: 0.033 | inactive: -0.045 | inactive: -0.043 |  | inactive: 0.064 | inactive: -0.023 | inactive: -0.001 | inactive: -0.02 | inactive: -0.01 | inactive: 0.058 |
| SLC50A1 (UniProt Q9BRV3) | inactive: 0.066 | inactive: -0.064 | inactive: -0.191 |  | inactive: 0.043 |  | inactive: 0.196 |  | inactive: 0.18 | inactive: -0.261 | inactive: -0.106 | inactive: 0.051 |  | inactive: 0.033 |  |  |  |  |  |  |
| SLC25A23 isoform 3 (UniProt Q9BV35) | inactive: -0.024 | inactive: 0.124 | inactive: -0.074 | inactive: 0.026 | inactive: 0.023 | inactive: 0.026 | inactive: -0.07 | inactive: -0.035 | inactive: -0.012 | inactive: 0.047 | inactive: -0.069 | inactive: -0.076 | inactive: 0 | inactive: 0.237 | inactive: -0.101 | inactive: -0.008 |  | inactive: 0.029 | inactive: 0.044 | inactive: -0.057 |
| SLC25A44 (UniProt Q96H78) | inactive: 0.063 | inactive: 0.013 |  | inactive: 0.051 | inactive: -0.025 | inactive: 0.116 | inactive: 0.071 | inactive: 0.028 |  | inactive: -0.146 | inactive: -0.027 | inactive: 0.017 | inactive: 0.003 | inactive: -0.252 | inactive: -0.012 | inactive: 0 | inactive: -0.046 | inactive: -0.018 | inactive: 0.002 | inactive: -0.058 |
| SLC25A39 (UniProt Q9BZJ4) | inactive: 0.029 | inactive: -0.06 |  | inactive: -0.12 | inactive: 0.012 | active: -0.82 | inactive: 0.107 |  | inactive: -0.118 | inactive: -0.01 | inactive: 0.015 | inactive: 0.005 | inactive: 0.087 |  | inactive: -0.076 | inactive: -0.18 | inactive: 0.081 | inactive: 0.06 | inactive: -0.044 | inactive: 0.041 |
| SLC19A1 (UniProt P41440) | inactive: 0.08 | inactive: 0.078 |  | inactive: -0.047 | inactive: -0.109 | inactive: 0.172 | inactive: 0.012 |  | inactive: -0.035 | inactive: -0.179 | inactive: -0.048 | inactive: 0.041 | inactive: -0.062 |  | inactive: -0.173 | inactive: -0.021 | inactive: 0.087 | inactive: 0.003 | inactive: -0.061 | inactive: -0.003 |
| SLC25A4 (UniProt P12235) | inactive: -0.012 | inactive: 0.06 |  | inactive: 0.037 | inactive: -0.038 | inactive: -0.001 | inactive: -0.022 |  | inactive: 0.044 | inactive: -0.061 | inactive: -0.026 | inactive: -0.001 | inactive: -0.024 |  | inactive: 0.029 | inactive: -0.138 | inactive: 0.009 | inactive: -0.053 | inactive: 0.012 | inactive: 0.019 |
| SLC35B1 isoform 2 (UniProt P78383) | inactive: 0.123 |  |  |  | inactive: -0.111 |  | inactive: 0.036 |  | inactive: -0.003 | inactive: -0.051 | inactive: 0.011 | inactive: 0.132 | inactive: -0.017 |  | inactive: -0.03 | inactive: 0.037 | inactive: 0.066 | inactive: 0.075 | inactive: 0.026 | inactive: -0.127 |
| SLC35B3 (UniProt Q9H1N7) | inactive: 0.093 |  | inactive: 0.039 |  | inactive: 0.01 |  | inactive: 0.139 | inactive: -0.224 | inactive: 0.038 | inactive: -0.052 | inactive: -0.04 | inactive: 0.017 | inactive: 0.074 | inactive: 0.01 | inactive: 0.093 | inactive: 0.093 | inactive: -0.054 | inactive: -0.141 | inactive: -0.015 | inactive: -0.161 |
| SLC48A1 (UniProt Q6P1K1) | inactive: 0 |  | inactive: 0.1 |  |  |  |  |  | inactive: -0.075 | inactive: -0.161 |  | inactive: 0.103 | inactive: -0.174 | inactive: 0.021 | inactive: -0.087 |  |  |  |  |  |
| SLC41A1 (UniProt Q8IVJ1) |  | inactive: -0.401 |  | inactive: -0.154 |  | inactive: 0.274 |  |  |  |  |  |  | inactive: 0.056 |  | inactive: -0.036 |  | inactive: 0.35 |  |  |  |

An excerpt from above, reduced to log2 fold change (defactinib), log2 fold change (saracatinib) and log2 fold change (encorafenib):
Target	log2 fold change (defactinib)	log2 fold change (saracatinib)	log2 fold change (encorafenib)
SLC35B1 isoform 2 (UniProt P78383)	inactive: 0.026	inactive: 0.036	inactive: 0.132
SLC35B3 (UniProt Q9H1N7)	inactive: -0.015	inactive: 0.139	inactive: 0.017
